Data on three molecules can be found in patent US20220306733A1.

The chains behind the UniProt entries cited, without tags or fusion partners. Residues count along the entry.
UniProt Q495A1, residues 22-244: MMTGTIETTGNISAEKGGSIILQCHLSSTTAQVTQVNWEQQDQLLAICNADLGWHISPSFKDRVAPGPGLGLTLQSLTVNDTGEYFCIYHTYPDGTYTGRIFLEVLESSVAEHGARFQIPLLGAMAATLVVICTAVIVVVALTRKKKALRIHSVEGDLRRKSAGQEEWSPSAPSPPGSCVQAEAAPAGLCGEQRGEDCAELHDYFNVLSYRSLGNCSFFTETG

Results are given in words; binding and its absence hold for the method and conditions named. Some results given as binding are weak or reduced against the parent protein; the word gives no strength.

The target in experiment [1] is human TIGIT on cells (Jurkat-hTIGIT, human primary T cells) (human) (UniProt Q495A1). Put plainly: flow cytometry competition on Jurkat-hTIGIT cells; cells incubated with the antibody, washed, then CD155-His at 15 ug/ml, bound CD155-His detected with anti-His-PE; blocked ligand: CD155-His.
Experiment [2] has the same target. The experiment can be described thus: flow cytometry on Jurkat-hTIGIT cells, detection with anti-human Ig (Fc gamma specific)-PE.
Experiment [3] shares this target. Put plainly: flow cytometry on PBMCs of healthy human donors, MFI on gated living TIGIT+CD8+ T cells, detection with anti-human Ig (Fc gamma specific)-PE.
Experiment [4] has the same target. The experiment can be described thus: flow cytometry on PBMCs of cancer patients, MFI on gated live TIGIT+CD8+ cells, detection with anti-human Ig (Fc gamma specific)-PE.
The target is the same in experiment [5]. The experiment can be described thus: flow cytometry on Jurkat-hTIGIT.
The target of experiment [6] is cynomolgus TIGIT on primary CD8+ T cells (Macaca fascicularis). Put plainly: flow cytometry on stimulated cynomolgus PBMCs, % TIGIT-stained cells gated on live CD69+CD8+ T cells, detection with anti-human Ig (Fc gamma specific)-PE.

B1: comparative anti-TIGIT antibody 313M32 (antibody, human IgG1, V domains shown)
VH: QVQLQESGPGLVKPSETLSLTCAVSGYSITSDYAWNWIRQPPGKGLEWIGYISYSGSTSYNPSLRSRVTISRDTSKNQFFLKLSSVTAADTAVYYCARRQVGLGFAYWGQGTLVTVSS
VL: DIQMTQSPSSLSASVGDRVTITCKASQDVSTAVAWYQQKPGKAPKLLIYSASYRYTGVPSRFSGSGSGTDFTFTISSLQPEDIATYYCQQHYSTPWTFG
For B1, the binding result in experiment [1], in experiment [2], in experiment [3], in experiment [4] and in experiment [5] was “binds” in each case.

B2: anti-TIGIT antibody clone 29520 (antibody, V domains shown)
VH: QVQLVESGGGLVQPGRSLRLSCAASGFTFRDYAMHWVRQAPGKGLEWVSGITWNSGLIGYADSVKGRFTISRDNAKNSLYLQMNSLRAEDTALYYCAKPVPRLRGLDVWGQGTMVTVSS
VL: DIQLTQSPSSVSASVGDRVTITCRASQGISSWLAWYQQKPGKAPKLLIYGASSLQSGVPSRFSGSGSGTDFTLTISSLQPEDFATYYCQQAFYLPWTFGGGTKVEIK
On to B2, for which, in experiment [6], the binding result is reported as “binds”.

B3: anti-TIGIT antibody clone 29527 (antibody, V domains shown)
VH: QVQLVESGGGVVQPGRSLRLSCAASGFTFSSSYMHWVRQAPGKGLEWVAVIGADGSNKYYADSVEGRFTISRDNSKNTLYLQMNSLRAEDTALYYCAKPVPRRRGLDVWGQGTMVTVSS
VL: B2 VL
As for B3, the binding entry in experiment [6] is recorded as “binds”.
